# According to article PMC7094076:
# Amino acid sequences for entries named in this document (tags omitted).
# UniProt Q39026: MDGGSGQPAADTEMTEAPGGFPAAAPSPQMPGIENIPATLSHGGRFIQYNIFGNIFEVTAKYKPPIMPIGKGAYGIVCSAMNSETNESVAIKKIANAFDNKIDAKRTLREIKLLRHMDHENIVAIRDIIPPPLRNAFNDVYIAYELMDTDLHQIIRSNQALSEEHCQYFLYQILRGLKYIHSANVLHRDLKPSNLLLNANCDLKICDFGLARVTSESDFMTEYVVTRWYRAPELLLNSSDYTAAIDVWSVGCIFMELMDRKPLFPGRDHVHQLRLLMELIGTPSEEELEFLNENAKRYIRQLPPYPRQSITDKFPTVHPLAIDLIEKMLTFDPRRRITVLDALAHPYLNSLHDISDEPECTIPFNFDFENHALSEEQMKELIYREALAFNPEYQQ
# No constants are given. Whether binding was seen depends on the method and setting. Some entries that bind do so weakly or less than the wild type. Where a sequence is shown, tags or fusion partners need not be part of it.
# T1: MKK1 (yeast two-hybrid fusion in pGBKT7) (Arabidopsis) (UniProt Q94A06)
# T1 sequence: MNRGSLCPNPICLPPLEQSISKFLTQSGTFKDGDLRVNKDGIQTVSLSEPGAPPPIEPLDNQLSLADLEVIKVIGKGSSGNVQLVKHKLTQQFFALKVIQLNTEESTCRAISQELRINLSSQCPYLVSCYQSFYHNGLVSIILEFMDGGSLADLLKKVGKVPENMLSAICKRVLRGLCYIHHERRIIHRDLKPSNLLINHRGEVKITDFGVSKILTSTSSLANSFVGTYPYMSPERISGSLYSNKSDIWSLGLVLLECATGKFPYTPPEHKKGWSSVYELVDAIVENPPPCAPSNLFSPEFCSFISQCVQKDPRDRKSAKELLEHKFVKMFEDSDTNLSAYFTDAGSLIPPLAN
# T2: MKK2 (yeast two-hybrid fusion in pGBKT7) (Arabidopsis) (UniProt Q9S7U9)
# T2 sequence: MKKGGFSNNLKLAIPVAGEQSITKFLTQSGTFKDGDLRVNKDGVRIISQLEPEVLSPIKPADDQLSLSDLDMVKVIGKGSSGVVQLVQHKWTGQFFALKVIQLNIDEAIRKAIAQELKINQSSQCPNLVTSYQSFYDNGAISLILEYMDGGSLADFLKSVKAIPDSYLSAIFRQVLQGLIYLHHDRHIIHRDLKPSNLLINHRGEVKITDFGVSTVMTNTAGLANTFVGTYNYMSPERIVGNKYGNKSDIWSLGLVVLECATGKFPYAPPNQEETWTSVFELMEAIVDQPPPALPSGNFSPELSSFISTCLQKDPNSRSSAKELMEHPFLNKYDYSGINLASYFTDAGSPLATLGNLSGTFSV
# T3: MKK5 (yeast two-hybrid fusion in pGBKT7) (Arabidopsis) (UniProt Q8RXG3)
# T3 sequence: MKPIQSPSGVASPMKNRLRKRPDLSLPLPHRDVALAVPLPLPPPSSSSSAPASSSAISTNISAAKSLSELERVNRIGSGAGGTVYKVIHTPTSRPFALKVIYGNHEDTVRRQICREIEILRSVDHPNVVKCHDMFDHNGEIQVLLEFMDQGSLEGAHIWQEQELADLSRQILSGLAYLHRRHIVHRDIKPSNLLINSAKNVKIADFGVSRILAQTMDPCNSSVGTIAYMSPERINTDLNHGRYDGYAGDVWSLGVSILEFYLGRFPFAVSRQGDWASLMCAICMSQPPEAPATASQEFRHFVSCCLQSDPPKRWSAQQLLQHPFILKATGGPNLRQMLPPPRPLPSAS
# B1: MPK3 (yeast two-hybrid fusion in pGADT7) (protein, UniProt Q39023 1-370)
# chain: MNTGGGQYTDFPAVETHGGQFISYDIFGSLFEITSKYRPPIIPIGRGAYGIVCSVLDTETNELVAMKKIANAFDNHMDAKRTLREIKLLRHLDHENIIAIRDVVPPPLRRQFSDVYISTELMDTDLHQIIRSNQSLSEEHCQYFLYQLLRGLKYIHSANIIHRDLKPSNLLLNANCDLKICDFGLARPTSENDFMTEYVVTRWYRAPELLLNSSDYTAAIDVWSVGCIFMELMNRKPLFPGKDHVHQMRLLTELLGTPTESDLGFTHNEDAKRYIRQLPNFPRQPLAKLFSHVNPMAIDLVDRMLTFDPNRRITVEQALNHQYLAKLHDPNDEPICQKPFSFEFEQQPLDEEQIKEMIYQEAIALNPTYG
# What was measured:
# Test in all cases: two-hybrid; MKKs in pGBKT7, MKD1 and MPKs in pGADT7, yeast strain Y190; β-galactosidase activity measured in diploids
# [1] = molecular target: T1, MKK1 (yeast two-hybrid fusion in pGBKT7) (Arabidopsis)
# [2] = molecular target: T2, MKK2 (yeast two-hybrid fusion in pGBKT7) (Arabidopsis)
# [3] = molecular target: T3, MKK5 (yeast two-hybrid fusion in pGBKT7) (Arabidopsis)
molecule,measurement,setting,value
MPK6 (yeast two-hybrid fusion in pGADT7) (from UniProt Q39026 1-395),binding,[1],no binding
same,binding,[2],binds
same,binding,[3],binds
B1,binding,[1],binds
same,binding,[2],binds
same,binding,[3],binds
